Experimental data as given in patent publication US20130115212A1.
No constants are given. Whether binding was seen depends on the method and setting. Some binding calls cover weakened binding; strength is not graded here.

Amino acid sequences for entries named in this document (tags omitted). A change or cut given only in a name is not applied to a line headed by its entry.
UniProt Q92673: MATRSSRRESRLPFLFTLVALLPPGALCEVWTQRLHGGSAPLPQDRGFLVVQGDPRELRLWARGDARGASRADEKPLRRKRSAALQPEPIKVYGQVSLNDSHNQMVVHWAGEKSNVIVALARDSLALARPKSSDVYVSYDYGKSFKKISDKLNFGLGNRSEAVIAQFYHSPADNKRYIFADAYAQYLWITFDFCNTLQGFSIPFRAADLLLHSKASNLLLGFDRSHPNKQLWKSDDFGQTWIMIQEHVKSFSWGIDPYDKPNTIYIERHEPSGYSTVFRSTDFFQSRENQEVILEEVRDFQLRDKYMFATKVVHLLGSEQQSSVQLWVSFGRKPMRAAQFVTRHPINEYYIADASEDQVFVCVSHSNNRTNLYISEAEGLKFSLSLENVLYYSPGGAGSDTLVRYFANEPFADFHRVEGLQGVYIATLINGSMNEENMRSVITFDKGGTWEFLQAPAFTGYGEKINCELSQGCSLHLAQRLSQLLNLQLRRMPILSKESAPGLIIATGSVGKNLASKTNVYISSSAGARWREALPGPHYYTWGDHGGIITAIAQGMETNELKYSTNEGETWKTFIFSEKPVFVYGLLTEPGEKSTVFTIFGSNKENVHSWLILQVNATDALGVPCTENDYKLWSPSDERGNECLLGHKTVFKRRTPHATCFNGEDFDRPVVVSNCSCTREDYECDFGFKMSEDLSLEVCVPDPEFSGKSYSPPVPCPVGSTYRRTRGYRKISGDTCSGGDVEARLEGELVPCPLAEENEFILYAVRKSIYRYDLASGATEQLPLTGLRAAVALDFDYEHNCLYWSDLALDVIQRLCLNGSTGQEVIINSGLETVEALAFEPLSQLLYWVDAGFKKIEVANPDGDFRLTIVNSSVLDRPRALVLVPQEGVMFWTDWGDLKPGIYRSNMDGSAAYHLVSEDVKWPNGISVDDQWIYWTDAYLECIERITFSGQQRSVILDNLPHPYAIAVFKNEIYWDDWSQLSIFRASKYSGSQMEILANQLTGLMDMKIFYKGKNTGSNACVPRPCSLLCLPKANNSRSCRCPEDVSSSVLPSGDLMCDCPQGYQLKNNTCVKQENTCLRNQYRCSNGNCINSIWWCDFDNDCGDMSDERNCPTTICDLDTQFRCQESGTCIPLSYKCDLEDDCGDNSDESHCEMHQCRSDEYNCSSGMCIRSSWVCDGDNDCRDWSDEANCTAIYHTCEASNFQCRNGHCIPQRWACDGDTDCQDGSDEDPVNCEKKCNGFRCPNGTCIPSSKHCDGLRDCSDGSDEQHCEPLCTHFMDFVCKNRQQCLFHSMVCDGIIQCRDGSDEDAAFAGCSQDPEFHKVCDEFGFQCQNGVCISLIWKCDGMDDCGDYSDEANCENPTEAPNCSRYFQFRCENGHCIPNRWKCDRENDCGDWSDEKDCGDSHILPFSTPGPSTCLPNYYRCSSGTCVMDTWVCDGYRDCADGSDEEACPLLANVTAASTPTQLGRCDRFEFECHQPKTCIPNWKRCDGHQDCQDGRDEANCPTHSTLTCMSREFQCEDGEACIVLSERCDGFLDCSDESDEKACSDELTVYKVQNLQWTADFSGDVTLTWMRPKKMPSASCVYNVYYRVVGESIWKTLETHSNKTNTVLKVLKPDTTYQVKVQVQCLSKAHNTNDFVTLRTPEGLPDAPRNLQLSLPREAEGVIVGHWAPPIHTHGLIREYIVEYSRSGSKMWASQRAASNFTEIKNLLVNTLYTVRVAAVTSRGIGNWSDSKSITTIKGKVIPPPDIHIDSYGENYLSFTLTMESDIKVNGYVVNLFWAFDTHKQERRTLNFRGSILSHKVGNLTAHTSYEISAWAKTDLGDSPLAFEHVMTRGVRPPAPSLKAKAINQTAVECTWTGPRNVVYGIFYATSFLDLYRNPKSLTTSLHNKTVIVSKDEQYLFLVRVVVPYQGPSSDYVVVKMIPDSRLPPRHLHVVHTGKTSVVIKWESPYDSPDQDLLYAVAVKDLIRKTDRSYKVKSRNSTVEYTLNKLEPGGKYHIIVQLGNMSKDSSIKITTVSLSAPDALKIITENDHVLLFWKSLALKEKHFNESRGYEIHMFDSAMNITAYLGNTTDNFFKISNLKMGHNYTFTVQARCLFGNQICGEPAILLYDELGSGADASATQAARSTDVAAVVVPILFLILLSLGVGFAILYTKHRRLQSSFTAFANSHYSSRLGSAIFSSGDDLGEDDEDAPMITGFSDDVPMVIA

Assays:
[1] = molecular target: SorLA expressed on cells (stably transfected HEK293 cells; SY5Y neuroblastoma cells, endogenous or overexpressed) (Homo sapiens) (UniProt Q92673); test: DSP crosslinking, immunoprecipitation with anti-GFRα4 and Western blot, HEK293 cells
[2] = molecular target: SorLA extracellular domain (immobilized on the Biacore chip) (Homo sapiens) (UniProt Q92673); test: SPR, chip coated with SorLA

| binding [1] | binding [2] | Binder |
| --- | --- | --- |
| binds |  | GFRα4 expressed on cells (HEK293 cells with SorLA) (receptor) VGGNRCVDAAEACTADARCQRLRSEYVAQCLGRAAQGGCPRARCRRALRRFFARGPPALTHALLFCPCAGPACAERRRQTFVPSCAFSGPGPAPPSCLEPLNFCERSRVCRCARAAAGPWRGWGRGLSPAHRPPAAQASPPGLSGLVHPSAQRPRRLPAGPGRPLPARLRGPRGVPAGTAVTPNYVDNVSARVAPWCDCGASGNRREDCEAFRGLFTRNRCLDGAIQAFASGWPPVLLDQLNPQGDPEHSLLQVSSTG |
|  | binds | GFRα4 extracellular domain (receptor) VGGNRCVDAAEACTADARCQRLRSEYVAQCLGRAAQGGCPRARCRRALRRFFARGPPALTHALLFCPCAGPACAERRRQTFVPSCAFSGPGPAPPSCLEPLNFCERSRVCRCARAAAGPWRGWGRGLSPAHRPPAAQASPPGLSGLVHPSAQRPRRLPAGPGRPLPARLRGPRGVPAGTAVTPNYVDNVSARVAPWCDCGASGNRREDCEAFRGLFTRNRCLDGAIQAFASGWPPVLLDQLNPQGDPEHSLLQVSSTG |
